Results published in patent publication US20130045191A1 (IMMATICS BIOTECHNOLOGIES, published 2013).

Each binder was assayed against T1, HLA A*024 (human) (assay: HLA immunoprecipitation from tumour tissue, LC-MS (Example 1)).
T1 construct: also called HLA A*024 alleles; HLA-A*24

Binder | binding
IFSKIVSLF [EIF2S3-001] | binds
AYAIIKEEL [ATAD2-001] | binds
IYPDASLLI [CEA-010] | binds
YYYVGFAYL [EIF3L-001] | binds
MYMTVSIIDRF [CCNB1-003] | binds
AYPTVKFYF [DNAJC10-002] | binds
IYLEVIHNL [DNAJC10-001] | binds
IYAPKLQEF [CCNE2-001] | binds
VYNPTPNSL [COL12A1-001] | binds
QYIDKLNEL [CCDC88A-001] | binds
TYGNLLDYL [ABL1-001] | binds
RYLWATVTI [ASPM-001] | binds
LYPEVFEKF [ATAD2-003] | binds
SYNPLWLRI [ASPM-002] | binds
FYISPVNKL [AVL9-001] | binds
SYLQAANAL [COL6A3-001] | binds
RYLPQCSYF [CCND2-001] | binds
KYLTVKDYL [ATAD2-002] | binds
VYLLNSTTL [CLCN3-001] | binds
VYFSKSEQL [EPHA2-005] | binds

Next, values leading:

binding | Binder
binds | NYEETFPHI [MUC6-001]
binds | SYIIDPLNL [PROM1-001]
binds | NYLLYVSNF [MST1R-001]
binds | HYKPTPLYF [SMC4-001]
binds | VYTTSYQQI [NFYB-001]
binds | SYLELVKSL [SDHC-001]
binds | VYGIRLEHF [NUF2-001]
binds | YYNAAGFNKL [UQCRB-001]
binds | YYKNIGLGF [RPS11-001]
binds | SYATLLHVL [GPR39-001]
binds | VFDTAIAHLF [SIAH2-001]
binds | KYNDTFWKEF [HSP90B1-001]
binds | VYIEKNDKL [ERBB3-001]
binds | SYQKVIELF [PBK-001]
binds | DYTIGFGKF [ITGB4-001]
binds | VYKVVGNLL [IQGAP3-001]

binding | Binder
binds | LYLENIDEF [POLD3-001]
binds | VYPNWAIGL [SLC6A6-001]
binds | AYLVYTDRL [PPAP2C-001]
binds | RYLEGTSCI [EPPK1-001]
binds | SYIDVLPEF [MET-006]
binds | IYNGKLFDLL [KIF2C-001]
binds | VFIFKGNQF [MMP3-001]
binds | DYAYLREHF [ZNF598-001]
binds | RFLSGIINF [NUF2-002]
binds | FYQPKIQQF [FANCI-001]
binds | NYLPFIMEL [UCHL5-001]
binds | QYASRFVQL [PLK4-001]
binds | VWSDVTPLTF [MMP11-001]
binds | SYNVTSVLF [LCN2-001]
binds | VYTTMAEHF [TSPAN1-002]

Results are given in words; binding and its absence hold for the method and conditions named. In cells and extracts the contact can be indirect. Binding can be weak; no strength is given.
